Results on three substances are retold here after publication PMC2669504.

Protein sequences, listed by entry. Tags and fused reporters are not part of them. Lines headed by an entry give the natural chain unless they say otherwise; changes in a name come on top.
UniProt Q9Y5X4: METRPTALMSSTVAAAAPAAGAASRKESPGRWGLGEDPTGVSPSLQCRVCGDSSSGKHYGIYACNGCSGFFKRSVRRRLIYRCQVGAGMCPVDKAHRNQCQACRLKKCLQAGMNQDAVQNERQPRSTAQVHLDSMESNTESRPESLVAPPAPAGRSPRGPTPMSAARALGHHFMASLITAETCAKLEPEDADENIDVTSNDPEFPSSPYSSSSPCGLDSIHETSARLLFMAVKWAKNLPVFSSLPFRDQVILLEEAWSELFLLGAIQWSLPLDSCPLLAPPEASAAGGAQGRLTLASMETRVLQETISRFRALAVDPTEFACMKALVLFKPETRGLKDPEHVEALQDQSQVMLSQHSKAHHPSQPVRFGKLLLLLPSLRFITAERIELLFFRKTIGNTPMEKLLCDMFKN

These are yes or no findings as the source states them, for the method shown. Some results given as binding are weak or reduced against the parent protein; the word gives no strength.

Common to all, as to assay: native gel or EMSA; nuclear extracts of transfected COS-1 cells with 32P-labelled Kni x2 dimeric response element probe; 25 mM HEPES pH 7.5, 50 mM KCl, 5 mM MgCl2, 0.1 mM EDTA, 0.1% NP40, 10% glycerol; 40 min at room temperature; 4% polyacrylamide gel; dimerization concluded from the shifted band on the dimeric …
Assay [1] concerns the target HA-tagged full-length NR2E3 (photoreceptor-cell specific nuclear receptor), wild-type (human) (UniProt Q9Y5X4).
Assay [2] addresses HA-tagged full-length NR2E3 R311Q (human) (UniProt Q9Y5X4).
Assay [3] has as its target HA-tagged full-length NR2E3 W234S (human) (UniProt Q9Y5X4).

Take “HA-tagged full-length NR2E3 (photoreceptor-cell specific nuclear receptor), wild-type (from UniProt Q9Y5X4 1-410)”: the binding entry in assay [1] is on record as “binds”.
For “HA-tagged full-length NR2E3 R311Q (from UniProt Q9Y5X4 1-410)”, the binding result in assay [2] is “binds”.
“HA-tagged full-length NR2E3 W234S (from UniProt Q9Y5X4 1-410)”: in assay [3], the binding entry is reported as “binds”.
